Measured values taken from paper PMC5552742.
Results are given in words; binding and its absence hold for the method and conditions named. Some results given as binding are weak or reduced against the parent protein; the word gives no strength.

Amino acid sequences for entries named in this document (tags omitted).
UniProt P00169: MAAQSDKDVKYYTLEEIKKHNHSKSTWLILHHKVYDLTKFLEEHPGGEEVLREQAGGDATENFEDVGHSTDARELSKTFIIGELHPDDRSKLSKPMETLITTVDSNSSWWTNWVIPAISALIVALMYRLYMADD
UniProt P00004: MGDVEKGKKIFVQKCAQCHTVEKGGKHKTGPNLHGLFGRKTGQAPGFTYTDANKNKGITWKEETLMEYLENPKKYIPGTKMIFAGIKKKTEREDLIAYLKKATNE

Assays:
[1] = target: full-length rabbit cytochrome b5 (rabbit) (UniProt P00169); assay: NMR titration; unlabeled cyt c titrated into 15N-cytb5 in DMPC/DHPC isotropic bicelles; 2D 15N/1H TROSY-HSQC, 298 K; both proteins ferric; both purified
[2] = target: full-length rabbit cytochrome b5 (rabbit) (UniProt P00169); assay: NMR titration; unlabeled cyt c titrated into about 0.1 mM 15N-cytb5 in 4F-DMPC nanodiscs (10 mM potassium phosphate, pH 7.4); 2D 15N/1H TROSY-HSQC, 298 K; both proteins ferric; both purified
[3] = target: full-length rabbit cytochrome b5 (rabbit) (UniProt P00169); assay: NMR titration; unlabeled cyt c titrated into 0.1 mM 15N-cytb5 in lipid-free buffer (10 mM potassium phosphate, pH 7.4); 2D 15N/1H TROSY-HSQC, 298 K; both proteins ferric; both purified

Measured: binding

equine cytochrome c (from UniProt P00004 1-105)
binds weakly: all assays above
